Assay results reported in publication doi:10.1101/2020.07.02.182121.
These are yes or no findings as the source states them, for the method shown. Binding seen in cells or lysates may run through a third protein. Some entries that bind do so weakly or less than the wild type.

Chains of the proteins cited; added tags and fusions are not shown.
UniProt P54646: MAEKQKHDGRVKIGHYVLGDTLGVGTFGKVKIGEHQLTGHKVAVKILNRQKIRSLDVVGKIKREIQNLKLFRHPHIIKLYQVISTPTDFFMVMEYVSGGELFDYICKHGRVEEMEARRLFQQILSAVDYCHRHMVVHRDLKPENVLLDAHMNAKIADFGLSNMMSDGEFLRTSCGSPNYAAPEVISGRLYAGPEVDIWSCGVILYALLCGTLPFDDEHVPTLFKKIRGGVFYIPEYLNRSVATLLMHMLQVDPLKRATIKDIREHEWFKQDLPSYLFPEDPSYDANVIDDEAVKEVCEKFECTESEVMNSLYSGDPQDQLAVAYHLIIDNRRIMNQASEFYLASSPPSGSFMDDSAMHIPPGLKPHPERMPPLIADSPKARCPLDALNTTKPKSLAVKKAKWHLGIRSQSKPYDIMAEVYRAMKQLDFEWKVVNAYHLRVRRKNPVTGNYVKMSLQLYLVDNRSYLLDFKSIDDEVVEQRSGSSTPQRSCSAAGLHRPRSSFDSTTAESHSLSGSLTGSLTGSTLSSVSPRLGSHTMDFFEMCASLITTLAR
UniProt Q9Y478: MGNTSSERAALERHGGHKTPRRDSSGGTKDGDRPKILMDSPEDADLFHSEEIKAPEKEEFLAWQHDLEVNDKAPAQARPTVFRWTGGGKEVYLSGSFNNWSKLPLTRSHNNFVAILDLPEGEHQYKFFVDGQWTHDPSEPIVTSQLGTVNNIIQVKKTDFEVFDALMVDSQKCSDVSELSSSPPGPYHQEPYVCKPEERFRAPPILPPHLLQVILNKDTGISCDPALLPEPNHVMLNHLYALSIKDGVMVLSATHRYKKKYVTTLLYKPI
UniProt Q9UKV0: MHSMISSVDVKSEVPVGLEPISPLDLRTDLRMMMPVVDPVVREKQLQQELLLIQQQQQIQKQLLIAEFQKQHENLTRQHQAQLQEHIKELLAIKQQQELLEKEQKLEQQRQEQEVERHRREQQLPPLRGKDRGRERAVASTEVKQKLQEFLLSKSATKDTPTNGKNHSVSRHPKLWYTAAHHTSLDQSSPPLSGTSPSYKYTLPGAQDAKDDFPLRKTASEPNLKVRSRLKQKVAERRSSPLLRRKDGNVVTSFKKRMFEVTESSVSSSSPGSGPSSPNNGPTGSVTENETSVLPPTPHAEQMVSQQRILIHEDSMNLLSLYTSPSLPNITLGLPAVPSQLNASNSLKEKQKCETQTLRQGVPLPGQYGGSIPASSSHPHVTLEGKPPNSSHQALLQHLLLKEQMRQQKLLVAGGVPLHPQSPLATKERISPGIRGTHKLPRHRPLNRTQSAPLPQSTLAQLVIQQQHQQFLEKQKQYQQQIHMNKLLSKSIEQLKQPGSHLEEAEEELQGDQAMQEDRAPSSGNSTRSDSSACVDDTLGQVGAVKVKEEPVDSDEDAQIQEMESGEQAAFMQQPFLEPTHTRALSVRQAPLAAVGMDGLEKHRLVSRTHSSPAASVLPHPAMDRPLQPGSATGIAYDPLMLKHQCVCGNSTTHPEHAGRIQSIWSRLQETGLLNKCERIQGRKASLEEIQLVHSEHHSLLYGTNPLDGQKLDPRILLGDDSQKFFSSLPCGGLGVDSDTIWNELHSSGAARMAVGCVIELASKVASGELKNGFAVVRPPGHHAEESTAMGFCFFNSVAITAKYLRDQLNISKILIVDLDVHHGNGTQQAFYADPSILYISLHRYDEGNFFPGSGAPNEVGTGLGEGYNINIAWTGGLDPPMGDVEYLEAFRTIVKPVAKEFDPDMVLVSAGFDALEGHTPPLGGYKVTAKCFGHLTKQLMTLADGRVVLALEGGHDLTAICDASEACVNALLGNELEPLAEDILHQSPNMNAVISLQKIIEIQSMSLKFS

Columns and labels:
[1] = target: AMPKα2, endogenous (human (endogenous in 293T)) (UniProt P54646); test: co-IP
[2] = target: AMPKβ1, endogenous (human (endogenous in 293T)) (UniProt Q9Y478); test: co-IP

| binding [1] | binding [2] | Molecule |
| --- | --- | --- |
| binds |  | HDAC9, endogenous (from UniProt Q9UKV0 1-1011) (enzyme) |
|  | binds | ASPP2 (apoptosis-stimulating of p53 protein 2), endogenous (protein, UniProt Q13625 1-1128) MMPMFLTVYLSNNEQHFTEVPVTPETICRDVVDLCKEPGESDCHLAEVWCGSERPVADNERMFDVLQRFGSQRNEVRFFLRHERPPGRDIVSGPRSQDPSLKRNGVKVPGEYRRKENGVNSPRMDLTLAELQEMASRQQQQIEAQQQLLATKEQRLKFLKQQDQRQQQQVAEQEKLKRLKEIAENQEAKLKKVRALKGHVEQKRLSNGKLVEEIEQMNNLFQQKQRELVLAVSKVEELTRQLEMLKNGRIDSHHDNQSAVAELDRLYKELQLRNKLNQEQNAKLQQQRECLNKRNSEVAVMDKRVNELRDRLWKKKAALQQKENLPVSSDGNLPQQAASAPSRVAAVGPYIQSSTMPRMPSRPELLVKPALPDGSLVIQASEGPMKIQTLPNMRSGAASQTKGSKIHPVGPDWSPSNADLFPSQGSASVPQSTGNALDQVDDGEVPLREKEKKVRPFSMFDAVDQSNAPPSFGTLRKNQSSEDILRDAQVANKNVAKVPPPVPTKPKQINLPYFGQTNQPPSDIKPDGSSQQLSTVVPSMGTKPKPAGQQPRVLLSPSIPSVGQDQTLSPGSKQESPPAAAVRPFTPQPSKDTLLPPFRKPQTVAASSIYSMYTQQQAPGKNFQQAVQSALTKTHTRGPHFSSVYGKPVIAAAQNQQQHPENIYSNSQGKPGSPEPETEPVSSVQENHENERIPRPLSPTKLLPFLSNPYRNQSDADLEALRKKLSNAPRPLKKRSSITEPEGPNGPNIQKLLYQRTTIAAMETISVPSYPSKSASVTASSESPVEIQNPYLHVEPEKEVVSLVPESLSPEDVGNASTENSDMPAPSPGLDYEPEGVPDNSPNLQNNPEEPNPEAPHVLDVYLEEYPPYPPPPYPSGEPEGPGEDSVSMRPPEITGQVSLPPGKRTNLRKTGSERIAHGMRVKFNPLALLLDSSLEGEFDLVQRIIYEVDDPSLPNDEGITALHNAVCAGHTEIVKFLVQFGVNVNAADSDGWTPLHCAASCNNVQVCKFLVESGAAVFAMTYSDMQTAADKCEEMEEGYTQCSQFLYGVQEKMGIMNKGVIYALWDYEPQNDDELPMKEGDCMTIIHREDEDEIEWWWARLNDKEGYVPRNLLGLYPRIKPRQRSLA |
